PubChem BioAssay AID1259326, Drosophila RNAi Screening Center – 2017
Screen: 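Autophagy genes whose loss alters cell survival in toxic zinc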. Cell system: Drosophila S2R+ cells. Knock-down reagent: long dsRNA against Drosophila genes. Duration: about 5 days (4 days of RNAi, then 1 day of zinc). Challenge: zinc chloride added to 15 mM final for one day. Detection: 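Cellular ATP measured by luciferase light as a viable-cell proxy, after 4 days of RNAi and 1 day in 15 mM zinc chloride; replicate z-scores averaged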. Scale: averaged z-score: higher = more ATP than other wells, i.e. more surviving cells, after zinc; ATP luminescence: higher = more ATP, i.e. more surviving cells. Rule for the call: 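Active if the averaged z-score exceeds 1.5 or falls under -1.5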.
Here is an unselected part of 573 reagents. 39 of them (6.8%) count as active. 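All actives have raised ATP, meaning more surviving cells; in these data active calls sit at averaged z-scores near 1.5 or above.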 Raw values vary from plate to plate and are shown uncorrected. A number with no mark means an inactive call. Reagents against one gene are numbered here. Not stated in the record: the amount of reagent.

averaged z-score,"ATP luminescence, replicate 1","ATP luminescence, replicate 2",Gene,reagent
1.96 (active),1.21e5,1.08e5,AsnS,1
1.09,87960,1.02e5,AsnS,2
1.74 (active),1.07e5,1.05e5,AsnS,3
0.117,68949,67303,Cdc37,1
-0.0775,95272,76856,Cdc37,2
-0.155,81539,78177,Cdc37,3
-0.395,64709,68949,robo2,1
-0.15,98848,79262,robo2,2
-0.0595,74524,72380,robo2,3
0.457,1.12e5,68988,Atg5,1
0.251,83357,80167,Atg5,2
-0.39,63150,69773,Atg5,3
0.199,1.05e5,79086,Agps,1
0.289,79137,91677,Agps,2
-0.158,63843,80024,Agps,3
0.875,1.12e5,90442,Mtpalpha,1
-0.295,76119,78400,Mtpalpha,2
0.151,73374,82517,Mtpalpha,3
-0.273,64285,96395,Psa,1
-0.176,63930,80064,Psa,2
-0.218,61198,74386,Psa,3
-0.209,91694,73632,Vps15,1
-0.32,63976,62124,Vps15,2
-0.266,72297,70047,Vps15,3
0.712,1.03e5,99775,Glg1,1
0.256,78125,81531,Glg1,2
0.106,86994,72380,Glg1,3
-0.0939,90339,78724,Pi3K92E,1
-0.636,85193,45988,Pi3K92E,2
-0.0397,96532,71162,Rab2,1
0.189,74506,74455,Rab2,2
-0.139,74792,72242,Rab2,3
0.613,1.13e5,93782,Cul3,1
-0.278,76307,72817,Cul3,2
0.0243,70287,78023,Cul3,3
-0.448,62347,71282,Cul3,4
-0.137,97853,76530,Snap25,1
-0.412,74712,70836,Snap25,2
-0.0143,68366,75261,Snap25,3
-0.555,83420,87903,Adsl,1
-0.0648,67602,76050,Adsl,2
-0.355,80939,88263,galectin,1
-0.678,41753,69958,galectin,2
-0.387,88812,72843,Usp7,1
-0.00655,65571,79052,Usp7,2
-0.43,78932,61421,Usp7,3
-0.0269,99843,72826,Lon,1
0.421,89292,76576,Lon,2
0.489,79155,89258,Lon,3
-0.486,63479,63221,Nek2,1
-0.0931,99637,71333,Nek2,2
-0.139,80544,73083,Nek2,3
-0.376,85639,80716,grp,1
0.985,85004,94799,grp,2
-0.131,73717,75947,grp,3
-0.376,65021,63496,AMPKalpha,1
-0.0318,97144,76753,AMPKalpha,2
-0.03,81024,73272,AMPKalpha,3
-0.391,88280,70047,Rab1,1
-0.439,68401,67543,Rab1,2
0.105,72054,74060,Rab1,3
0.0773,99740,75467,Ocrl,1
0.193,75793,78653,Ocrl,2
-0.61,72807,61078,Ocrl,3
-0.165,1.00e5,74712,Pten,1
-0.196,77508,75501,Pten,2
-0.206,1.01e5,71848,hpo,1
-0.267,69819,74705,hpo,2
0.128,82363,82225,hpo,3
